Measured values from PubChem BioAssay AID1259415 (National Center for Advancing Translational Sciences (NCATS), 2018).
About 18,000 (4.4%) of roughly 410,000 compounds were called active. Inconclusive results, whose numbers are uncertain, are shown with a selection of clear calls. Cut-off read from the data, not from the text of the source: active = activity change below about -60%; inconclusive = no clear call, values can overlap the other calls; inactive = above about -39%.

experiment: qHTS Assay for inhibitors of the human cytomegalovirus (HCMV); conditions: HFF cells, HCMV-luciferase reporter, 72 h; at 57.5 µM; active compounds read low
Outline: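 Luciferase read-out from HCMV-luciferase-infected HFFs (MOI 1 PFU/cell) 72 h post infection at 37C; compounds added after 16 h cell attachment; activity normalized between buffer-only basal and Salinomycin (10uM) inhibitor controls.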
% is set by controls: 0 for no effect and ±100 for the full control effect.

SMILES | activity change, negative = inhibition
COC(=O)c1cc(NC(=O)c2nn(C)c3c2COc2ccccc2-3)cc(C(=O)OC)c1 | inconclusive: -52.4%
CCN1CCN(C(CNS(=O)(=O)c2ccccc2)c2ccccc2)CC1 (stereo not drawn) | inconclusive: -41.9%
Cc1cc(C)c2c(n1)sc1c(O)cc(=O)[nH]c12 | inactive: -0.252%
CCOC(=O)c1ccc(NC(=O)Nc2cc3c(cc2N2CCCC2)n(C)c(=O)n3C)cc1 | inconclusive: -50.2%
Cc1[nH]c2ccccc2c1C(=O)COC(=O)c1c(-c2ccccc2Cl)noc1C | active: -74.5%
Cc1cccn2c(=O)c3cc(C(N)=S)c(=N)n(CCCOC(C)C)c3nc12 | inconclusive: -42.3%
CCOC(=O)C1=C[C@@H](C(C)(C)C)N(S(=O)(=O)c2ccc(C)cc2)[C@H]1c1ccc(C#N)cc1 | inconclusive: -44.1%
O=C(Nc1ccc2c(c1)OCO2)N1CCN(c2ncc(C(F)(F)F)cc2Cl)CC1 | inconclusive: -43.5%
CC1(C)Cc2c(sc3c2C(=O)NC(c2cccnc2)N3)CO1 (stereo not drawn) | inactive: 38.5%
O=C(NCCCn1ccnc1)/C(=C\c1cccnc1)NC(=O)c1cccc(Br)c1 | inactive: 7.74%
CCOc1ccc(CCN2C(=S)N([C@@H](CC(C)C)CN3CCCC3CN3C(=S)NC[C@@H]3Cc3ccc(O)cc3)C[C@@H]2CC(C)C)cc1 (stereo partly drawn) | inconclusive: -46.6%
O=S(=O)(c1ccc(Cl)s1)N1CCN(c2ncccn2)CC1 | inconclusive: -41.7%
Nc1nc(N)c2cc(Sc3ccc4ccccc4c3)ccc2n1 | active: -84.2%
Cc1ccc(S(=O)(=O)N2CCOCC2)cc1C(=O)Nc1ccccn1 | inconclusive: -59.2%
COc1cc(CN2CCN(C(=O)c3cccc4ccccc34)CC2)cc(OC)c1O | inactive: -0.16%
CCC(=O)c1ccc(N2CCN(C(=O)c3ccc(F)cc3)CC2)c(F)c1 | inactive: 17.7%
COc1ccccc1CNC(=O)COc1ccc(C)nc1[N+](=O)[O-] | inconclusive: -45.5%
CCOC(=O)N1CCN(S(=O)(=O)c2ccc(OC)c(C(=O)N3CCCCC3)c2)CC1 | inconclusive: -47.7%
CS(=O)(=O)Nc1ccc(C(=O)NCCSCc2c(F)cccc2Cl)cc1 | inactive: 8.82%
CCn1ncc(Cl)c1C(=O)Nc1cc(Cl)ccc1Cl | inconclusive: -57.1%
CCN(C(=O)COC(=O)c1ccc2c(=O)n3c(nc2c1)CCC3)C1CCS(=O)(=O)C1 (stereo not drawn) | inconclusive: -44.6%
COc1ccc2nc(/C(C#N)=C\c3ccc(Oc4ccc([N+](=O)[O-])cn4)cc3)[nH]c2c1 | inconclusive: -52.7%

Quoted at random: 3 records from the list, in no set order.
SMILES | activity change, negative = inhibition
COc1cc(CN2CCN(C(=O)c3cccc4ccccc34)CC2)cc(OC)c1O | inactive: -0.16%
COC(=O)c1cc(NC(=O)c2nn(C)c3c2COc2ccccc2-3)cc(C(=O)OC)c1 | inconclusive: -52.4%
O=C(Nc1ccc2c(c1)OCO2)N1CCN(c2ncc(C(F)(F)F)cc2Cl)CC1 | inconclusive: -43.5%

Continuation:

SMILES | activity change, negative = inhibition
OC1(c2cccc(C(F)(F)F)c2)CCN(c2ncnc3c2[nH]c2ccccc23)CC1 | inactive: -8.72%
O=C(OCC(=O)c1ccc[nH]1)c1ccc(Cl)c(Cl)c1 | inconclusive: -41.8%
COc1ccccc1NC(=O)C1=C(C)Nc2nc(SCc3ccccc3)nn2C1c1cccnc1 (stereo not drawn) | inactive: -1.02%
O=C(NC(=S)Nc1ccccc1N1CCOCC1)c1ccccc1F | inconclusive: -44.1%
CCCOc1ccc(C(=O)Nc2nc(C)c(Cc3ccc4c(c3)OCO4)s2)cc1 | inconclusive: -50.2%
CCOc1ccc(NC(=O)c2cc(S(=O)(=O)N3CCOCC3)ccc2F)cc1 | inconclusive: -46.2%
COc1ccccc1C(CNC(=O)c1ccc(NS(=O)(=O)c2ccc(F)c(C)c2)cc1)N(C)C (stereo not drawn) | inconclusive: -43.5%
O=[N+]([O-])c1ccc(S(=O)(=O)NNC(=S)NCCc2ccccc2)cc1 | inconclusive: -56.7%
O=C(CCCn1c(=O)oc2ccccc21)N1CCN(c2ccc(F)cc2)CC1 | inconclusive: -43.9%
O=C(OCc1ccccc1)N1CCC2CC1c1ccc(N3CCOCC3)cc12 (stereo not drawn) | inactive: 16.8%
COC(=O)c1c(-c2ccccc2)csc1NC(=O)CSc1ncnc2sc(C)c(C)c12 | inconclusive: -42%
C/C(=C\c1cc2ccccc2o1)C1Nc2cccc3cccc(c23)N1 | inactive: -18.5%
O=C(N1CCCCC1)N1CCN(C(=O)N(c2ccccc2)c2ccccc2)CC1 | inconclusive: -59.9%
COc1ccc(C2CC(=O)C(CS(=O)(=O)c3ccccc3)C(=O)C2)cc1 (stereo not drawn) | inconclusive: -56.6%
Cc1ccccc1C(=O)OCCN(C)Cc1ccccc1 | inconclusive: -47.7%
Cc1ccc(NC(=O)c2ccccc2NS(=O)(=O)c2ccc(Cl)s2)cc1 | active: -98.2%
NC(=S)Nc1cccc2[nH]ccc12 | inconclusive: -48.5%
CC1CN=C(Nc2ccccc2)S1 (stereo not drawn) | inconclusive: -58.4%
CC1CCCCN1S(=O)(=O)c1coc(C(N)=O)c1 (stereo not drawn) | inconclusive: -47.1%
COc1ccc(-c2noc(CNS(=O)(=O)c3ccc(Br)cc3)n2)cc1OC | inactive: -10.3%
CC(C)C[C@H]1CN(CCCC[C@H]2CNC(=O)C(=O)N2CCC2CCCCC2)C(=O)C(=O)N1CCC1CCCCC1 | active: -108%
